# PubChem BioAssay AID1347076 (National Center for Advancing Translational Sciences (NCATS), 2019)
# Hit rate of the full screen: of about 400,000 compounds, about 13,000 (3.2%) were called active. The inconclusive results got no clear call from the source; some entries with a clear call stand among them for comparison. The call rests on the fitted dose curve; in most records, active means well fitted cell-killing curve with a large enough effect; inconclusive means small, poorly fitted or top-dose-only effect, or effect the other way; inactive means flat fitted curve, though single readings scatter. A potency beside an inconclusive call is a rough fit, not a confirmed value.
# Test: qHTS assay for MDR1-selective chemotherapeutics: Primary screen using the drug-selected MDR subline cells KB-V1; further: nearly all actives have a fitted effect of over 60% in size
# Conditions: KB-V1 MDR cells viability, CellTiter-Glo, 72 h; series mostly up to 46.1 µM
# Outline: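 Following 72 h at 37 degrees C with compound, KB-V1 cell viability was read by CellTiter-Glo luminescence, medium being phenol-red-free DMEM plus 10% FBS; concentration-response parameters came from normalized, curve-fitted qHTS data.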
# Potency means the concentration at half of the fitted maximal effect.
row,SMILES,Potency
1,CN1CCN(c2ncnc3c2ncn3[C@H]2CN(Cc3ccc(-c4ccccc4)cc3)C[C@@H](CO)O2)CC1,inactive
2,O=C(CSc1nnc(COc2ccc(Cl)cc2)o1)N1CCCC1,"inconclusive: 29.1 µM [cytotoxic, partial curve, poor fit]"
3,Cc1ccc(NC(=O)CN(C)CC(=O)N(C)Cc2ccccc2)cc1,inactive
4,COc1ccccc1C(=O)Nc1cccc(C(=O)OCc2cc(=O)n3nc(C4CC4)sc3n2)c1,inactive
5,C=CCOc1ccc(/C=N/NC(=O)CN2CCCCC2)cc1OC,"inconclusive: 8.2 µM [rising, partial curve]"
6,Cn1c(CCNC(=O)c2ccc(Cl)c(Cl)c2)nnc1SCc1ccc(Cl)c(Cl)c1,"inconclusive: 5.8 µM [cytotoxic, full curve]"
7,CCOCCCNC(=O)/C(C#N)=C/c1cc(Br)c(O)c(Br)c1,active: 3.66 µM
8,CCOC(=O)C1=CCC(c2ccccc2C(F)(F)F)N(S(=O)(=O)c2ccc(C)cc2)C1 (centres undefined),"inconclusive: 4.61 µM [cytotoxic, full curve, poor fit]"
9,O=C(Cn1cnc2cc([N+](=O)[O-])ccc2c1=O)Nc1ccccc1-c1ccccc1,"inconclusive: 9.2 µM [cytotoxic, partial curve]"
10,Cc1cccc(N2CCN(C(c3cccs3)c3nnnn3C(C)(C)C)CC2)c1C (centres undefined),"inconclusive: 9.2 µM [cytotoxic, partial curve]"
11,CC(C)NC(=O)c1cc(C2CCCCN2C(=O)c2ccccc2)on1 (centres undefined),inactive
12,Cc1ccc2c(NC(=O)C3CC3)cccc2n1,"inconclusive: 25.9 µM [rising, single point]"
13,CCCNC(=O)NC(=O)COC(=O)c1cccc(NS(=O)(=O)c2ccc(F)c(F)c2)c1,"inconclusive: 18.4 µM [cytotoxic, partial curve, poor fit]"
14,O=C(/C=C/c1cccs1)N1CCc2ccccc21,"inconclusive: 29.1 µM [cytotoxic, single point]"
15,COc1ccccc1NS(=O)(=O)c1cccc(C(=O)NCC(c2cccs2)N(C)C)c1 (centres undefined),"inconclusive: 16.4 µM [cytotoxic, single point]"
16,CCN(CC(=O)NC(C)C)C(=O)C(CCSC)NC(=O)c1cccc(C)c1 (centres undefined),active: 23.1 µM
17,Cc1ccc(SCCN2CCN(CC(C)C)CCC2=O)cc1,"inconclusive: 20.6 µM [rising, single point]"
18,O=[N+]([O-])c1cccc(S(=O)(=O)Nc2ccccn2)c1,"inconclusive: 29.1 µM [rising, single point]"
19,CCc1noc(C)c1C(=O)Nc1cc(S(=O)(=O)N(CC)CC)ccc1N1CCCC1,inactive

# 2 entries from above, tab-delimited.
row	SMILES	Potency
12	Cc1ccc2c(NC(=O)C3CC3)cccc2n1	inconclusive: 25.9 µM [rising, single point]
13	CCCNC(=O)NC(=O)COC(=O)c1cccc(NS(=O)(=O)c2ccc(F)c(F)c2)c1	inconclusive: 18.4 µM [cytotoxic, partial curve, poor fit]
